Reference: PubChem BioAssay AID686938 (Drosophila RNAi Screening Center, 2013)

- Assay: 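Fly genes required for calcium entry once internal stores are emptied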 (primary screen)
- Cells: Drosophila S2R+ cells
- Knock-down reagent: long dsRNA against Drosophila genes, about 0.25 µg dsRNA per well, roughly 10,000 cells
- Timing: 5 days of knock-down before the calcium assay
- Conditions: thapsigargin (SERCA pump blocker) to empty calcium stores; entry signal taken 4 min after adding it
- Detection: 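Duplicate raw fluo-4 intensities per well from a plate reader, at rest and four minutes after thapsigargin emptied calcium stores; entry-to-rest ratio filled for only some wells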
- Direction: calcium entry signal: higher = stronger calcium signal after store depletion; resting calcium signal: higher = higher resting calcium signal
- Rule for the call: 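Hit if the duplicate-averaged plate z-score for entry over resting signal is under −3; wells with weak total dye signal (Fmax z < −2) or more than 5 off-targets removed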
- Meaning of the calls: active = strongly reduced calcium entry; inactive = no strong reduction
The screen tested about 23,000 reagents; below is an unselected part of those with a known target gene and a result. In the full data, 75 (0.33%) were called active. 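Raw plate signals without normalisation; calls rest on plate z-scores that were not deposited; ratio present for only 364 wells.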 The numbers tell different reagents against one gene apart. Names joined by + are all predicted targets of the reagent. No sequences are given here. Not stated in the record: the dose of the treatment.

gene knocked down	reagent	calcium entry signal, replicate 1 (fluorescence units)	calcium entry signal, replicate 2 (fluorescence units)	resting calcium signal, replicate 1 (fluorescence units)	resting calcium signal, replicate 2 (fluorescence units)	activity call
CG6216	1	3.58e7	4.93e7	1.60e7	2.06e7	inactive
CG8841	1	4.32e7	4.18e7	1.68e7	1.80e7	inactive
elav (embryonic lethal abnormal vision)	1	5.08e7	4.87e7	2.23e7	2.35e7	inactive
Pepck1 (Phosphoenolpyruvate carboxykinase 1)	1	6.14e7	7.31e7	2.65e7	3.26e7	inactive
Rpn6 (Regulatory particle non-ATPase 6)	1	1.32e7	2.51e7	1.07e7	1.71e7	inactive
Rca1 (Regulator of cyclin A1)	1	2.53e7		1.80e7		inactive
LManIV (Lysosomal alpha-mannosidase IV)	1	2.73e7	3.99e7	1.23e7	1.75e7	inactive
Ag5r2 (Antigen 5-related 2)	1	3.32e7	3.12e7	1.79e7	1.46e7	inactive
CG11586	1	5.70e7	3.26e7	3.68e7	1.65e7	inactive
lncRNA:CR34047 (long non-coding RNA:CR34047)	1	4.33e7	4.68e7	2.09e7	2.13e7	inactive
lncRNA:CR34047 (long non-coding RNA:CR34047)	2	4.66e7	3.24e7	2.54e7	1.57e7	inactive
Daao2 (D-amino acid oxidase 2)	1	3.65e7		1.66e7		inactive
byn (brachyenteron)	1	3.11e7	4.51e7	1.54e7	1.88e7	inactive
Sms (Spermine synthase)	1	2.82e7	5.18e7	1.48e7	2.23e7	inactive
jbug (jitterbug)	1	3.53e7	6.12e7	1.59e7	2.74e7	inactive
jbug (jitterbug)	2	3.91e7		2.07e7		inactive
jbug (jitterbug)	3	3.81e7	4.85e7	2.00e7	2.06e7	inactive
jbug (jitterbug)	4	3.77e7	4.17e7	1.94e7	1.87e7	inactive
Atg3 (Autophagy-related 3)	1	4.32e7	3.95e7	2.08e7	1.81e7	inactive
Atg3 (Autophagy-related 3)	2	3.05e7	3.09e7	1.82e7	1.49e7	inactive
CG42327	1	3.61e7	3.49e7	1.85e7	1.73e7	inactive
CG42327	2	3.65e7	4.02e7	1.76e7	1.83e7	inactive
CG42327	3	3.62e7	3.76e7	1.72e7	1.65e7	inactive
Npc2c (Niemann-Pick type C-2c)	1	3.18e7	2.40e7	1.52e7	1.35e7	inactive
CG7365	1	2.67e7	4.18e7	1.26e7	2.79e7	inactive
CG7231	1	2.94e7	4.22e7	1.51e7	1.82e7	inactive
CG33111	1	4.51e7	6.04e7	2.10e7	2.51e7	inactive
CG33111	2	5.41e7	6.47e7	2.37e7	2.63e7	inactive
CG4390	1	2.10e7	1.95e7	1.08e7	1.01e7	inactive
CG1941	1	3.61e7	4.67e7	1.73e7	1.87e7	inactive
thw (thawb)	1	4.72e7	3.51e7	2.22e7	1.75e7	inactive
h-cup + Rbp	1	2.29e7	3.41e7	1.21e7	5.65e7	inactive

3 entries from above, reformatted.
jbug (jitterbug) #4
- calcium entry signal, replicate 1 (fluorescence units): 3.77e7
- calcium entry signal, replicate 2 (fluorescence units): 4.17e7
- resting calcium signal, replicate 1 (fluorescence units): 1.94e7
- resting calcium signal, replicate 2 (fluorescence units): 1.87e7
- activity call: inactive

Atg3 (Autophagy-related 3) #1
- calcium entry signal, replicate 1 (fluorescence units): 4.32e7
- calcium entry signal, replicate 2 (fluorescence units): 3.95e7
- resting calcium signal, replicate 1 (fluorescence units): 2.08e7
- resting calcium signal, replicate 2 (fluorescence units): 1.81e7
- activity call: inactive

Atg3 (Autophagy-related 3) #2
- calcium entry signal, replicate 1 (fluorescence units): 3.05e7
- calcium entry signal, replicate 2 (fluorescence units): 3.09e7
- resting calcium signal, replicate 1 (fluorescence units): 1.82e7
- resting calcium signal, replicate 2 (fluorescence units): 1.49e7
- activity call: inactive

The list goes on:
gene knocked down	reagent	calcium entry signal, replicate 1 (fluorescence units)	calcium entry signal, replicate 2 (fluorescence units)	resting calcium signal, replicate 1 (fluorescence units)	resting calcium signal, replicate 2 (fluorescence units)	activity call
CG5645	1	3.60e7	3.67e7	2.71e7	1.48e7	inactive
Caf1-180 (Chromatin assembly factor 1, p180 subunit)	1	2.07e7	2.24e7	1.19e7	1.22e7	inactive
comm2	1	4.11e7	4.21e7	1.92e7	1.80e7	inactive
comm2	2	4.36e7	4.70e7	1.88e7	1.96e7	inactive
eIF4B (eukaryotic translation initiation factor 4B)	1	4.16e7	3.41e7	1.99e7	1.53e7	inactive
Hmt4-20 (Histone methyltransferase 4-20)	1	4.34e7	5.45e7	1.93e7	2.44e7	inactive
gammaSnap1 (gamma Soluble NSF attachment protein 1)	1	3.51e7		1.81e7		inactive
CG31021	1	4.13e7	6.06e7	2.01e7	3.11e7	inactive
Alp13 (Alkaline phosphatase 13)	1	2.95e7	2.33e7	1.63e7	1.27e7	inactive
elB (elbow B)	1	5.24e7	3.19e7	2.33e7	1.75e7	inactive
aph-1 (anterior pharynx defective 1)	1	3.97e7		1.97e7		inactive
CG17625	1	4.25e7	3.49e7	2.06e7	1.49e7	inactive
CG5561	1	4.59e7	5.41e7	2.08e7	2.36e7	inactive
SK (small conductance calcium-activated potassium channel)	1	2.36e7	2.39e7	1.17e7	1.15e7	inactive
SK (small conductance calcium-activated potassium channel)	2	1.82e7	2.58e7	1.01e7	1.23e7	inactive
SK (small conductance calcium-activated potassium channel)	3	1.92e7	2.99e7	1.06e7	1.33e7	inactive
SK (small conductance calcium-activated potassium channel)	4	1.77e7	2.97e7	1.01e7	1.44e7	inactive
SK (small conductance calcium-activated potassium channel)	5	2.60e7	2.77e7	1.23e7	1.30e7	inactive
SK (small conductance calcium-activated potassium channel)	6	2.27e7	6.64e7	1.14e7	2.73e7	inactive
CG34251	1	3.36e7	3.81e7	1.56e7	1.83e7	inactive
CG34251	2	2.53e7	3.55e7	1.17e7	1.48e7	inactive
lncRNA:CR31526 (long non-coding RNA:CR31526)	1	4.21e7	4.29e7	2.11e7	1.87e7	inactive
ATbp ((A+T)-stretch binding protein)	1	3.80e7	5.12e7	2.42e7	2.36e7	inactive
IntS3 (Integrator 3)	1	4.10e7	4.49e7	2.17e7	2.03e7	inactive
CG10011	1	4.84e7	4.59e7	2.24e7	2.20e7	inactive
FoxK (Forkhead box K)	1	3.95e7	3.06e7	2.48e7	1.37e7	inactive
